{"source": "patent US9532994B2", "about": "“Agents and methods for enhancing bone formation by oxysterols in combination with bone morphogenic proteins” (THE REGENTS OF THE UNIVERSITY OF CALIFORNIA, priority 2003, dated 2017)", "key": {"[1]": {"system": "osteocalcin mRNA in M2 cells", "test": "Northern blotting for osteocalcin mRNA in M2 cells", "assay_type": "cell-based, mouse", "conditions": "20 μM SC with 22R+20S, 8 days (FIGS. 9C and 9D)", "procedure": "RNA isolation and Northern blot analysis - Following treatment of cells under appropriate experimental conditions, total RNA was isolated using the RNA isolation kit from Stratagene (La Jolla, Calif., U.S.A.). Total RNA ([…]) was run on a 1% agarose/formaldehyde gel and transferred to Duralon-UV membranes (Strategene, CA, U.S.A.) and cross-linked with UV light. The membranes were hybridized overnight at 60° C. with ^32P-labeled mouse osteocalcin cDNA probe, mouse lipoprotein lipase (LPL), mouse adipocyte protein 2 (aP2) PCR-generated probes, human 28S or 18S rRNA probes obtained from Geneka Biotechnology (Montreal, Quebec, Canada) and Maxim Biotech (San Francisco, CA, U.S.A.), respectively. […] The extent of gene induction was determined by densitometry.\nM2 cells at confluence were treated with control vehicle (C) or a combination of 22R and 20S oxysterols (5 μM each) in osteogenic medium. After 4 and 8 days, total RNA from duplicate samples was isolated and analyzed for osteocalcin (Osc) and 28S rRNA expression by Northern blotting as described. […]\n(§1) (A) M2 cells at confluence were pretreated for 4 hours with control vehicle (C) or 10 μM COX-1 inhibitor SC-560 (SC) in osteogenic medium as described earlier. […] After 3 days, ALP activity was measured as described earlier. […] After 3 days, ALP activity was measured as previously described. […]"}, "[2]": {"system": "M2-10B4 mouse marrow stromal cell line", "test": "Matrix mineralization in M2 cells (von Kossa staining, 45Ca incorporation assay)", "assay_type": "cell-based", "conditions": "with 22R+20S (2.5 μM each), 10 days, 45Ca incorporation (FIGS. 9B, 9F)", "procedure": "Cells: M2-10B4 mouse marrow stromal cell line obtained from American Type Culture Collection (ATCC, Rockville, Md., U.S.A.) was derived from bone marrow stromal cells of a (C57BL/6J×C3H/HeJ) F1 mouse, and support human and murine myelopoiesis in long-term cultures (as per ATCC) and have the ability to differentiate into osteoblastic and adipocytic cells. Unless specified, these cells were cultured in RPMI 1640 containing 10% heat-inactivated FBS, and supplemented with 1 mM sodium pyruvate, 100 U/ml penicillin, and 100 […] (all from Irvine Scientific).\nVon Kossa and oil red O staining—Matrix mineralization in cell monolayers was detected by silver nitrate staining as previously described. […]\n^45Ca incorporation assay—Matrix mineralization in cell monolayers was quantified using the ^45Ca incorporation assay as previously described. […]\nM2 cells were treated with control vehicle (C) or a combination of 22R and 20S oxysterols at increasing concentrations. After 14 days, matrix mineralization in cultures was quantified using a ^45Ca incorporation assay. […]\nas §1"}, "marrow stromal cells": {"system": "marrow stromal cells", "test": "Osteogenic activity/effects of oxysterol combinations in marrow stromal cells, readout not specified", "assay_type": "cell-based, mouse", "conditions": "SC-560 at 1-20 μM, M2 cells"}, "[3]": {"system": "M2-10B4 mouse marrow stromal cell line", "test": "Alkaline phosphatase (ALP) activity assay in M2 cells", "assay_type": "cell-based", "conditions": "with 22R+20S (2.5 μM each), 3 days; SC 10 μM, ACA 25 μM, MC 20 μM (FIGS. 9A, 9E)", "procedure": "Cells: M2-10B4 mouse marrow stromal cell line obtained from American Type Culture Collection (ATCC, Rockville, Md., U.S.A.) was derived from bone marrow stromal cells of a (C57BL/6J×C3H/HeJ) F1 mouse, and support human and murine myelopoiesis in long-term cultures (as per ATCC) and have the ability to differentiate into osteoblastic and adipocytic cells. Unless specified, these cells were cultured in RPMI 1640 containing 10% heat-inactivated FBS, and supplemented with 1 mM sodium pyruvate, 100 U/ml penicillin, and 100 […] (all from Irvine Scientific). […]\nTest 1: M2 cells at confluence were treated with control vehicle (C), or 10 μM oxysterols, in an osteogenic medium consisting of RPMI 1640 to which 10% fetal bovine serum (FBS), 50 μg/ml ascorbate and 3 mM beta-glycerophosphate (βGP) were added. After 3 days of incubation, alkaline phosphatase (ALP) activity was determined in cell homogenates by a calorimetric assay. […]\nM2 cells at confluence were treated in osteogenic medium with control vehicle (C) or a combination of 22R and 20S oxysterols, at the indicated concentrations. ALP activity was measured after 3 days as described above. […]\nTest 2: M2 cells were grown in RPMI medium containing 10% fetal bovine serum (FBS). […] After 4 days, alkaline phosphatase activity was determined in whole cell lysates and normalized to protein. […]"}}, "data": [{"compound": "COc1ccc(-n2nc(C(F)(F)F)cc2-c2ccc(Cl)cc2)cc1", "note": "[SC-560]", "values": [{"measurement": "inhibition of oxysterol-induced osteocalcin gene expression", "setting": "[1]", "value": "inhibited"}, {"measurement": "inhibition of oxysterol-induced mineralization", "setting": "[2]", "value": "inhibited"}, {"measurement": "inhibition of osteogenic effects of the 22R+20S and 22S+20S oxysterol combinations", "setting": "marrow stromal cells", "value": "significantly inhibited"}, {"measurement": "inhibition of oxysterol-induced alkaline phosphatase activity", "setting": "[3]", "value": "inhibited"}]}]}
